Measurements reported in PubChem BioAssay AID493014 (National Center for Advancing Translational Sciences (NCATS), 2011).
The list shows a part of the results. Further columns of the screen follow, without active or inactive calls. The list favours compounds with an active or inconclusive main result. The note in brackets gives the kind of curve behind each potency; many fits are weak.

Test: qHTS Assay to Find Inhibitors of Chronic Active B-Cell Receptor Signaling
Conditions: ABC-DLBCL IkBa-CBG/CBR reporter, luminescence ratio (green luciferase fused to IkBa over red control in TMD8 lymphoma cells), 4 h
Procedure, shortened: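 Compounds up to 46 uM were incubated four hours with TMD8 cells whose green CBG68 luciferase is fused to IkappaBalpha; red CBR luminescence normalised the signal, and concentration-effect curves were fitted to fusion, red and ratio data.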

[1] = measured here: CBR red luminescence, cell number
[2] = measured here: IkBa-CBG green luminescence

Compound	AC50 [1]	AC50 [2]
COc1cccc(-c2ncc3ccccc3c2CO)c1	10.3 µM [falling, partial curve]	
Cc1ccccc1OCC(=O)Nc1nnc(-c2ccncc2)s1	11.2 µM [falling, partial curve, poor fit]	
O=C1CC(c2cccc(Cl)c2)CC(O)=C1C=NC1CCCC1 (configuration not stated)	0.00461 µM [rising, full curve, poor fit]	
CCC/C(C#CCCN1C(=O)c2ccccc2C1=O)=C1/c2ccccc2C(=O)N1c1ccccc1	2.91 µM [falling, full curve]	
COCCN1C(=O)C(=O)/C(=C(/O)c2ccc(OC(C)C)cc2)C1c1cccnc1 (configuration not stated)	29.1 µM [rising, single point]	
O=c1c2c3nc4ccccc4nc3n(-c3ccc4c(c3)OCCO4)c2ncn1CC1CCCO1 (configuration not stated)	14.1 µM [rising, partial curve]	
COc1ccc2c(c1)[nH]c1c(Cl)ncnc12	5.8 µM [falling, full curve]	
Cc1cc(N2CCN(C(=O)c3ccco3)CC2)c2ccccc2n1	11.2 µM [falling, partial curve]	
COc1ccc(NC(=O)CN2CCOCC2)cc1S(=O)(=O)N1CCCCC1	7.31 µM [rising, partial curve, poor fit]	
Cc1ccccc1N(C(=O)c1snc(C(N)=O)c1N)C(C(=O)NCc1ccccc1)c1ccc(O)cc1 (configuration not stated)		7.94 µM [falling, partial curve, poor fit]
CCOC(=O)c1cc(-c2ccccc2)n(Cc2cc(CC)no2)n1	32.6 µM [falling, single point]	
O=C(Nc1nc2ccccc2s1)c1ccc2c(c1)S(=O)(=O)c1ccccc1C2=O	3.98 µM [rising, partial curve, poor fit]	
CCN(CC(=O)NCc1ccc(F)cc1)C(=O)/C=C/c1ccc(OC)c(S(=O)(=O)NC(C)C)c1	17.8 µM [rising, partial curve]	12.6 µM [falling, partial curve]
NCCCn1c(C(=O)c2ccc(Cl)cc2)c2ccc([N+](=O)[O-])cc2[n+]1[O-]	3.26 µM [falling, partial curve]	
COc1cc(OC)cc(C(=O)Nc2ccc3c(c2)COC3=O)c1	0.206 µM [falling, full curve, poor fit]	
Nc1c(Br)cc2oc(-c3ccccc3)nc2c1Br	4.11 µM [rising, full curve, poor fit]	
O=C1c2ccccc2C(=O)N1CCOc1ccc(F)cc1	15.8 µM [rising, single point]	
O=C(CC1Sc2ccccc2NC1=O)c1ccc(Br)cc1 (configuration not stated)	4.11 µM [rising, partial curve, poor fit]	
COCCCNC(=O)C[C@H]1C[C@H](C(=O)N2CCOCC2)[C@@]2(CCC3CCCC3)c3[nH]c4ccc(Cl)cc4c3CCN2C1=O	0.13 µM [rising, full curve, poor fit]	
Cc1sc2nc(-c3ccc(Br)cc3)oc(=O)c2c1C	0.282 µM [falling, full curve, poor fit]	
CC1CCN(CCC(=O)N2CCCc3c2c(=O)oc2ccc(O)cc32)CC1	17.8 µM [falling, partial curve, poor fit]	

Compound	AC50 [1]	AC50 [2]
CCn1ccc2c(OCC(=O)Nc3ccccc3C)cccc2c1=O	2.82 µM [falling, partial curve]	
Cc1c(C(=O)N2CCN(C(=O)c3ccco3)CC2)oc2c(Cl)cccc12	3.26 µM [rising, single point]	
O=C(Nc1cccnc1)c1cccc(S(=O)(=O)N2CCCCC2)c1	6.31 µM [falling, full curve]	
CCCOC(=O)c1ccc(NC(=O)c2ccccc2OC)cc1	8.91 µM [falling, partial curve, poor fit]	
C/C(=C\c1cccc(Cl)c1Cl)C(=O)c1c(C)cc(C)[nH]c1=O	0.355 µM [rising, full curve]	
CC(C)Cc1cc(C(=O)NCCCN2CCOCC2)no1	8.91 µM [rising, partial curve, poor fit]	
CN(C(=S)NC1CCCCC1)C1(c2ccccc2Cl)CCCCC1=O (configuration not stated)	23.1 µM [falling, single point]	
O=C(CBr)N1CCc2ccccc2C(c2ccccc2)C1 (configuration not stated)	31.6 µM [rising, single point]	35.5 µM [falling, single point]
CN(Cc1ccc(Cl)c(Cl)c1)C(=O)c1cccc(S(=O)(=O)N2CCN(Cc3ccccc3)CC2)c1	10.3 µM [falling, partial curve]	
COc1cc(CN2CCN(C(=O)c3cccc4ccccc34)CC2)cc(OC)c1O	7.94 µM [rising, partial curve, poor fit]	
Nc1nc(N)c2cc(Sc3ccc4ccccc4c3)ccc2n1	5.62 µM [falling, full curve, poor fit]	
O=C(COc1ccc(/C=N/NC(=O)c2ccccc2O)cc1)Nc1ccccc1	4.47 µM [falling, partial curve, poor fit]	
OCc1cn(-c2ccccc2)nc1-c1ccc(Br)cc1	5.01 µM [rising, full curve]	
COc1ccc(/C=C/c2cc[n+](C(=O)Cc3ccccc3)cc2)cc1	15.8 µM [falling, single point]	
COc1ccc(Cl)cc1NC(=O)CN(C)C(=O)c1cc(=O)c2ccccc2o1	0.461 µM [rising, full curve]	
CCOC(=O)C(=O)Nc1ccc(OCc2ccccc2)cc1	12.6 µM [falling, single point]	
COc1ccc(CCNC(=O)C2CCCN(S(=O)(=O)c3ccc(F)cc3)C2)cc1 (configuration not stated)	5.62 µM [rising, single point]	
CCOC(=O)c1cc(-c2ccccc2)sc1NC(=O)C(C)Sc1nnnn1C (configuration not stated)	14.1 µM [falling, single point]	35.5 µM [rising, partial curve, poor fit]
Cc1cccc(NC(=O)CS(=O)(=O)c2cn(C)c3ccccc23)c1	29.1 µM [falling, single point]	
Clc1ccc(-c2c(C3=NCCCN3)nnn2-c2ccc(Cl)cc2)cc1	22.4 µM [falling, partial curve, poor fit]	
Cc1ccc(N2C(=O)CC(SCC(=O)Nc3ccc(S(N)(=O)=O)cc3)C2=O)cc1 (configuration not stated)	5.62 µM [rising, single point]	

Structures above with an NH in an aromatic ring (3):
Compound	AC50 [1]	AC50 [2]
COc1ccc2c(c1)[nH]c1c(Cl)ncnc12	5.8 µM [falling, full curve]	
COCCCNC(=O)C[C@H]1C[C@H](C(=O)N2CCOCC2)[C@@]2(CCC3CCCC3)c3[nH]c4ccc(Cl)cc4c3CCN2C1=O	0.13 µM [rising, full curve, poor fit]	
C/C(=C\c1cccc(Cl)c1Cl)C(=O)c1c(C)cc(C)[nH]c1=O	0.355 µM [rising, full curve]	

The list continues.

Compound	AC50 [1]	AC50 [2]
CCOc1ccc(-n2c(-c3ccco3)nc3c(cnn3-c3ccc(C)cc3)c2=O)cc1	3.55 µM [rising, single point]	
O=C(COCc1cc(-c2ccc3c(c2)OCO3)on1)N1CCN(c2ccccc2)CC1	35.5 µM [falling, single point]	
Cn1cc2ccc([N+](=O)[O-])cc2n1	3.16 µM [falling, full curve, poor fit]	
CC1CCCC(C)N1c1nnc(NC(=O)Cn2c(=O)oc3ccccc32)s1 (configuration not stated)	0.146 µM [rising, full curve, poor fit]	
Cn1c(NC(=O)c2cccc(Cn3cc(Cl)cn3)c2)nc2ccccc21	0.206 µM [rising, full curve]	
Cc1cc(CC(=O)O)n(C)c1C(=O)c1ccc(Cl)cc1	2.59 µM [rising, single point]	
Cc1cc(N)n2ncc(-c3cccc(Br)c3)c2n1	0.447 µM [rising, full curve, poor fit]	
COc1ccc(C(=O)C2CCCCC2=O)cc1 (configuration not stated)	10 µM [falling, single point]	
CN1C(=O)CC(N2CCN(CCN=CC3=C(O)CC(C)(C)CC3=O)CC2)C1=O (configuration not stated)	35.5 µM [rising, single point]	
COc1cccc(CN2CCNC(=O)C2CC(=O)N(C)CCc2ccccn2)c1OC (configuration not stated)	3.16 µM [rising, full curve, poor fit]	
CCOc1ccc(S(=O)(=O)Nc2cc(OC)ccc2OC)cc1	14.6 µM [rising, partial curve]	11.6 µM [falling, partial curve]
CC(C)c1ccccc1NC(=O)COc1ccc2c(=O)c(Oc3ccc4ccccc4c3)coc2c1	7.31 µM [rising, partial curve, poor fit]	
CCn1c(SCC(=O)NCC2CCCO2)nc2c([nH]c3ccccc32)c1=O (configuration not stated)	0.891 µM [falling, full curve]	
Cc1[nH]c2ccccc2c1C(=O)COC(=O)c1c(-c2ccccc2Cl)noc1C	0.103 µM [rising, full curve, poor fit]	25.9 µM [rising, partial curve, poor fit]
Clc1ccc(CNc2nnnn2-c2ccccc2)c(Cl)c1	14.6 µM [falling, partial curve, poor fit]	
Fc1cc(F)c(NC(=S)N2CCOCC2)c(F)c1	8.91 µM [rising, partial curve, poor fit]	
Cc1cccc2cc(COC(=O)c3ccccn3)c(=O)[nH]c12	2.31 µM [rising, partial curve, poor fit]	
C=CCn1c(NC(=O)c2ccco2)nc2ccccc21	35.5 µM [falling, single point]	
Cc1cc(NC(=O)c2cc3cccc([N+](=O)[O-])c3[nH]2)ccc1F	22.4 µM [falling, single point]	
C/C(=N\Nc1nc(C(C)(C)C)cs1)c1ccc(O)cc1	0.112 µM [rising, full curve, poor fit]	
